# Measurements published in US9326993B2, “Treatment of pulmonary and pleural fibrosis using HSP27 inhibitors” (ONCOGENEX TECHNOLOGIES INC., priority 2011, dated 2016).
# Tested on: mice lung tissue
# Assay: Bleomycin intra-tracheal pulmonary fibrosis model
# Type: in vivo
# Details: intra-tracheal administration
substance,measurement,setting,value
bleomycin,mesenchymal marker α-SMA in lung tissue (immunoblotting),,induction
same,HSP27 expression in lung tissue (immunoblotting),21 days,significant HSP27 overexpression
